Laboratory results reported in the supplement of paper PMC10849652.
The list shows a part of the results.

Sequences of proteins named here, by UniProt entry; tags and fusion partners are left off. A change or cut given only in a name is not applied to a line headed by its entry.
UniProt Q9UFW8: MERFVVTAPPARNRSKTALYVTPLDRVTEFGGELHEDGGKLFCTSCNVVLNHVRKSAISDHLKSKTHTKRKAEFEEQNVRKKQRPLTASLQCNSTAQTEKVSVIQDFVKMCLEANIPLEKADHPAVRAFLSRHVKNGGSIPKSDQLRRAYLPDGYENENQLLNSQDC
UniProt Q8N5B7: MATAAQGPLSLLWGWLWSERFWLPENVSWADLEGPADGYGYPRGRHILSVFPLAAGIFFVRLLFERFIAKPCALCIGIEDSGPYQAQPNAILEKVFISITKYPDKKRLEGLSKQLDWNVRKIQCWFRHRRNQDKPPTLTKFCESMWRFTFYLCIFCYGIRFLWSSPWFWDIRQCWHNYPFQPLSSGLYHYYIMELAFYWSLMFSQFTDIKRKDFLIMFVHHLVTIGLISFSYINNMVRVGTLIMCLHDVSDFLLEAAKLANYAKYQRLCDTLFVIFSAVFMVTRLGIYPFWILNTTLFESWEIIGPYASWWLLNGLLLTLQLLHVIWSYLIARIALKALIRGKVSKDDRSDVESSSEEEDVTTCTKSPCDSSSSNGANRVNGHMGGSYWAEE
UniProt O96017, whole entry, looked up: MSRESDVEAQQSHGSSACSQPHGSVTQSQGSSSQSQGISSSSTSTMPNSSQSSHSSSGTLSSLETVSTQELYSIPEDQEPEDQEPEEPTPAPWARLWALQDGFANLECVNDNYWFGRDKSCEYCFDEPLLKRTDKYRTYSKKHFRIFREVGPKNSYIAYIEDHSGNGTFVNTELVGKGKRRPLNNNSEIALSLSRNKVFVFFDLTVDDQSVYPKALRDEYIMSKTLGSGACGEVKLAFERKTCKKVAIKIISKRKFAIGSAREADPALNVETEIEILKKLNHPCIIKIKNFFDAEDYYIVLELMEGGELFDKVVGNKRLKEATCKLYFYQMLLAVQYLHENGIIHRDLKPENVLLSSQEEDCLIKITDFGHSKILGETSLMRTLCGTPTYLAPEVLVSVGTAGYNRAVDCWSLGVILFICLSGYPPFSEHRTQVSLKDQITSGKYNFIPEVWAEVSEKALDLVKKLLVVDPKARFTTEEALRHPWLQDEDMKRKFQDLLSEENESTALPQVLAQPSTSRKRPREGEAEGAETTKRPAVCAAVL
UniProt Q9BRQ6: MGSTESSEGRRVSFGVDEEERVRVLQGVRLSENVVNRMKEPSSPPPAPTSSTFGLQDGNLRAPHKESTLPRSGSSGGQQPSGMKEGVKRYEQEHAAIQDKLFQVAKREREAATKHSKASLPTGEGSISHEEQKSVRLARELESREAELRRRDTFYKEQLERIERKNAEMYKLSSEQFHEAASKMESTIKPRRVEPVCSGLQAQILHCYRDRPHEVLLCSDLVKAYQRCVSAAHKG
UniProt P50613: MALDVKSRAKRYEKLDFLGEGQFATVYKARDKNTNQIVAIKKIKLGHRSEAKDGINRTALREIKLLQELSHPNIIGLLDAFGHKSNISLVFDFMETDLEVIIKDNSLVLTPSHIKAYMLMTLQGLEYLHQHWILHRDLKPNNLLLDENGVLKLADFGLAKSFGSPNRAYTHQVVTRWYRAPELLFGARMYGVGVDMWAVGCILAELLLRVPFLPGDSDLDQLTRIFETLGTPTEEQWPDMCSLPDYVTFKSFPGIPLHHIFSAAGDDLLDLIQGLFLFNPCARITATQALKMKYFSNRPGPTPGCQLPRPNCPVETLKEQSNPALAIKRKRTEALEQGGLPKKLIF
UniProt Q9UKY7: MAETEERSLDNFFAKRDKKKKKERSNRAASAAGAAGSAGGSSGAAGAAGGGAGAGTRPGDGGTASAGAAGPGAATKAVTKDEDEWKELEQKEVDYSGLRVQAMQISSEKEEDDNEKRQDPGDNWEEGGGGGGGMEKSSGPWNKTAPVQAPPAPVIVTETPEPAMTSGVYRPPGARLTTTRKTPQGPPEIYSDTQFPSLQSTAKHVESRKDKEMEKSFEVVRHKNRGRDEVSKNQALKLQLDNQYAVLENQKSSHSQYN
UniProt Q9UEE9, whole entry, looked up: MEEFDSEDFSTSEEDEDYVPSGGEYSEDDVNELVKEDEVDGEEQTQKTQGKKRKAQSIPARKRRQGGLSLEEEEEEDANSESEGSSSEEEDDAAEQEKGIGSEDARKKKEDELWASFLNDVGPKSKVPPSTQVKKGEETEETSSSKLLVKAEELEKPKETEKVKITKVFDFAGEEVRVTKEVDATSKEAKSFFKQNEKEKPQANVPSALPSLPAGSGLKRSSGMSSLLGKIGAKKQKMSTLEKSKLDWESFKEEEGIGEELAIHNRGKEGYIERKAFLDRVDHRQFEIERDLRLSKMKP
UniProt Q9HD42: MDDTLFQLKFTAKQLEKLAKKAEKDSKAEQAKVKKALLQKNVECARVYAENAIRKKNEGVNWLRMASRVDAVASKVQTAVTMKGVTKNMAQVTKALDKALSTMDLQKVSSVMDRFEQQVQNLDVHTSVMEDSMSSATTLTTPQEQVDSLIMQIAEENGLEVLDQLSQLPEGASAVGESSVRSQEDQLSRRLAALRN
UniProt Q7LBR1: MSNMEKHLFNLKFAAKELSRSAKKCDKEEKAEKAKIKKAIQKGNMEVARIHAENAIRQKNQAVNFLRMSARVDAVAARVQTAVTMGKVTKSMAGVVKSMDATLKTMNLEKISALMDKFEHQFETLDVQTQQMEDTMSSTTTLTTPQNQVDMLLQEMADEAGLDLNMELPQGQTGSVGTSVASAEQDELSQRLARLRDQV
UniProt Q9BWS9: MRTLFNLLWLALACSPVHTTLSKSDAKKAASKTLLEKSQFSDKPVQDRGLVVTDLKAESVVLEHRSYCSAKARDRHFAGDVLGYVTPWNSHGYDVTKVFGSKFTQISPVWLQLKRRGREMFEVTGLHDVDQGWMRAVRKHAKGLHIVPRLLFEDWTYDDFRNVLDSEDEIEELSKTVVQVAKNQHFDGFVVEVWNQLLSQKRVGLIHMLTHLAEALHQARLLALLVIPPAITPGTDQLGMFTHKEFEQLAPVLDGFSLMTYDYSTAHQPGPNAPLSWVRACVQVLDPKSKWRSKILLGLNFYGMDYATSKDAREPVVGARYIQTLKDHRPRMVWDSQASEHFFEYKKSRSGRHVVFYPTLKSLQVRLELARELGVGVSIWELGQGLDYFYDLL
UniProt Q9BY43: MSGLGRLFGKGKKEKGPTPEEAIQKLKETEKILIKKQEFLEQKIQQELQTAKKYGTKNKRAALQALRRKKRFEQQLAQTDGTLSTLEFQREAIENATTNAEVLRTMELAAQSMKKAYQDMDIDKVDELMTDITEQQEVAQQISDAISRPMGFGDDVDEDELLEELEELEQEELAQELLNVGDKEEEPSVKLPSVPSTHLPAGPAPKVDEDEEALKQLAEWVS
UniProt Q9C0F1: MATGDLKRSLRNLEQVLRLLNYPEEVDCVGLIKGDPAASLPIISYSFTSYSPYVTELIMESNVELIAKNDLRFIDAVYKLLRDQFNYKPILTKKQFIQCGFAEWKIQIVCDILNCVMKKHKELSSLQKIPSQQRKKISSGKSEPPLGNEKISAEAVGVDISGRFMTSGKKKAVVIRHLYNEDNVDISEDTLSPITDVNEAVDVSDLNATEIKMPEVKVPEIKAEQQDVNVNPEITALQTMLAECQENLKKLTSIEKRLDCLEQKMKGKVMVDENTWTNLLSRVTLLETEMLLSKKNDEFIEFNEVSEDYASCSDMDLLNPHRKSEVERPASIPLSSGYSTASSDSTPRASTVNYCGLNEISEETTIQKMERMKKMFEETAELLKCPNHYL
UniProt Q9UQN3, whole entry, looked up: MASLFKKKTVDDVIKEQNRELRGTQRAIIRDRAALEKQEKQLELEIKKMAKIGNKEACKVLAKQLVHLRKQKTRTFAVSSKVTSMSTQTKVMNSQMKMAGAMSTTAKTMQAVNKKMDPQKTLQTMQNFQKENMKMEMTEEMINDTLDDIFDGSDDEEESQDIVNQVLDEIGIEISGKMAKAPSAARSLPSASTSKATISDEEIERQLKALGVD
UniProt P08603, whole entry, looked up: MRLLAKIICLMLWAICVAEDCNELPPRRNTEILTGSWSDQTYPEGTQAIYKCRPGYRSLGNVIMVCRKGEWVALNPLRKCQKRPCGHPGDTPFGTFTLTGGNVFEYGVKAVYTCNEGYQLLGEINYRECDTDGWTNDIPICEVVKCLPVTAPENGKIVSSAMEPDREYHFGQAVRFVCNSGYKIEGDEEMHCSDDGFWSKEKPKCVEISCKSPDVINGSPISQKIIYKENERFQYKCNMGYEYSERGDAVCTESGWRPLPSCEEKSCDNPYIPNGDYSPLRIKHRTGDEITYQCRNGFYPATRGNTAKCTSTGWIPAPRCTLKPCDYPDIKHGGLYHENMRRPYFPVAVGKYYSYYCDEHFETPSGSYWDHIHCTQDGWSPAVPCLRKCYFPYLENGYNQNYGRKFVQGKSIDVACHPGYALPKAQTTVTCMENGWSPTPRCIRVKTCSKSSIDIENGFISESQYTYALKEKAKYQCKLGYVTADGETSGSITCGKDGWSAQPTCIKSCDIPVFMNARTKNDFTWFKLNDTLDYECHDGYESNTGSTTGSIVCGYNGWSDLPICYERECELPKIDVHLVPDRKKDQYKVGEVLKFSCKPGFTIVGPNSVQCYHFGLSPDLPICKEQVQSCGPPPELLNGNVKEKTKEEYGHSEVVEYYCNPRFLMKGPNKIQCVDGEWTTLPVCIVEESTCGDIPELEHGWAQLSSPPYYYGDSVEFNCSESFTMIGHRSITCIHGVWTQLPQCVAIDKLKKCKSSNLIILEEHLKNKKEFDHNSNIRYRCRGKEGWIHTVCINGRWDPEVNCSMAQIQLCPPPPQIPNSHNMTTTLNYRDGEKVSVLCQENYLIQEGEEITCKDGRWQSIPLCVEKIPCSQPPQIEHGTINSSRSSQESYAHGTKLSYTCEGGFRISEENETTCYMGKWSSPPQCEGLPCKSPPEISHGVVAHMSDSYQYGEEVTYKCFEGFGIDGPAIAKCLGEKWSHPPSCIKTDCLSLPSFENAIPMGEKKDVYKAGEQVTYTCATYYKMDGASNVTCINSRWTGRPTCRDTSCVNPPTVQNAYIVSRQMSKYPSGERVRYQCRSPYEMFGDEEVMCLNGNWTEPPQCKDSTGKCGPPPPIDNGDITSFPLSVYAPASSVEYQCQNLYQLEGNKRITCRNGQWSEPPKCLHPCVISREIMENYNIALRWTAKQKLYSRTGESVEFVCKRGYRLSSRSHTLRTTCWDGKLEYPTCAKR
UniProt P26374: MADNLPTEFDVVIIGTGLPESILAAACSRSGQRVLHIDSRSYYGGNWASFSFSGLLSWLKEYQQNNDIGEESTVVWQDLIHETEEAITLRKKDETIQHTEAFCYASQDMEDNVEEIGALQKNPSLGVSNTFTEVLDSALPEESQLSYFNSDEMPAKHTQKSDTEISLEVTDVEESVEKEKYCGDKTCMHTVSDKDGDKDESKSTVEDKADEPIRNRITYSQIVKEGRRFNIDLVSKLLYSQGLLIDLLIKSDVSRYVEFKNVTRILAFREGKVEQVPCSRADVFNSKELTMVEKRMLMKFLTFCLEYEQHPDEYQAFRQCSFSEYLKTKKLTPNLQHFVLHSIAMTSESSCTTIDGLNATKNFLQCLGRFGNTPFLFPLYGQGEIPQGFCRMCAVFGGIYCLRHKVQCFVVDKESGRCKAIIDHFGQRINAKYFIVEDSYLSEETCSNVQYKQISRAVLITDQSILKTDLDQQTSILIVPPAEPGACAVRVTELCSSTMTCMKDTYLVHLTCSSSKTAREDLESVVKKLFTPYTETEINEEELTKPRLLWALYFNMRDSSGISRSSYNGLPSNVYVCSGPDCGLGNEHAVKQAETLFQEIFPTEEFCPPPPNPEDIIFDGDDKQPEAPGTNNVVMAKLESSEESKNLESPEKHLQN

How the values were obtained:
Assay in all cases: log2 fold change, soluble protein after heating vs DMSO (PISA); higher = thermal stabilisation; K562 cells, 10 uM, 30 min; active = over 0.2 and 3.5 SD of the protein, either way, in both replicates (recomputed)
[1] = compound: CS(=O)(=O)c1ccc(-c2cnc(N)c(C(=O)Nc3ccccc3)n2)cc1
Procedure, shortened: (§1)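 K562 cells at 2×10^6 cells/mL were exposed to 10 μM compound for 30 min, then aliquots were heated for 3 min across 48°C-58°C, pooled, and extracted in PBS containing 0.5% NP-40 at 4°C. The supernatant after 21,000xg for 90 min was taken as soluble protein and measured by TMTpro 16plex LC-MS/MS with channel sums equalised. Thermal stability is reported relative to control samples, with values from duplicates. Fold changes are given on a log2 scale.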

crizotinib = compound: C[C@@H](Oc1cc(-c2cnn(C3CCNCC3)c2)cnc1N)c1c(Cl)ccc(F)c1Cl [crizotinib]
Procedure, shortened: as §1

[2] = compound: C[C@@H]1COCCN1C2=NC(=NC(=C2)C3(CC3)S(=O)(=O)C)C4=C5C=CNC5=CC=C4
Procedure, shortened: as §1

[3] = compound: C[C@H](C1=CC=C(C=C1)C(=O)NC2=C3C=CNC3=NC=C2)N
Procedure, shortened: as §1

duvelisib = compound: C[C@H](Nc1ncnc2nc[nH]c12)c1cc2cccc(Cl)c2c(=O)n1-c1ccccc1 [duvelisib]
Procedure, shortened: as §1

gandotinib = compound: Cc1cc(Nc2cc(CN3CCOCC3)c3nc(C)c(Cc4ccc(Cl)cc4F)n3n2)n[nH]1 [gandotinib]
Procedure, shortened: as §1

tozasertib = compound: Cc1cc(Nc2cc(N3CCN(C)CC3)nc(Sc3ccc(NC(=O)C4CC4)cc3)n2)n[nH]1 [tozasertib]
Procedure, shortened: as §1

[4] = compound: Cc1cc(SCc2sc(-c3ccc(C(F)(F)F)cc3)nc2C)ccc1OCC(=O)O
Procedure, shortened: as §1

doramapimod = compound: Cc1ccc(-n2nc(C(C)(C)C)cc2NC(=O)Nc2ccc(OCCN3CCOCC3)c3ccccc23)cc1 [doramapimod]
Procedure, shortened: as §1

ispinesib = compound: Cc1ccc(C(=O)N(CCCN)[C@@H](c2nc3cc(Cl)ccc3c(=O)n2Cc2ccccc2)C(C)C)cc1 [ispinesib]
Procedure, shortened: as §1

bafetinib = compound: Cc1ccc(NC(=O)c2ccc(CN3CC[C@H](N(C)C)C3)c(C(F)(F)F)c2)cc1Nc1nccc(-c2cncnc2)n1 [bafetinib]
Procedure, shortened: as §1

[5] = compound: Cc1cccc(CC(=O)N2CCc3c2ccc(-c2cn(C)c4ncnc(N)c24)c3F)n1
Procedure, shortened: as §1

nilotinib = compound: Cc1cn(-c2cc(NC(=O)c3ccc(C)c(Nc4nccc(-c5cccnc5)n4)c3)cc(C(F)(F)F)c2)cn1 [nilotinib]
Procedure, shortened: as §1

[6] = compound: Cc1nc(Nc2n[nH]c3c2CN(C(=O)N[C@H](CN(C)C)c2ccccc2)C3(C)C)c2sccc2n1
Procedure, shortened: as §1

dasatinib = compound: Cc1nc(Nc2ncc(C(=O)Nc3c(C)cccc3Cl)s2)cc(N2CCN(CCO)CC2)n1 [dasatinib]
Procedure, shortened: as §1

[7] = compound: Cc1ncc(-c2ccnc(Nc3ccc(S(C)(=O)=O)cc3)n2)n1C(C)C
Procedure, shortened: as §1

[8] = compound: Cn1cc(-c2ccc3c(c2)CCN3C(=O)Cc2cccc(C(F)(F)F)c2)c2c(N)ncnc21
Procedure, shortened: as §1

[9] = compound: Cn1cc(-c2ccc3nnc(C(F)(F)c4ccc5ncccc5c4)n3n2)cn1
Procedure, shortened: as §1

tipifarnib = compound: Cn1cncc1[C@@](N)(c1ccc(Cl)cc1)c1ccc2c(c1)c(-c1cccc(Cl)c1)cc(=O)n2C [tipifarnib]
Procedure, shortened: as §1

mubritinib = compound: FC(F)(F)c1ccc(/C=C/c2nc(COc3ccc(CCCCn4ccnn4)cc3)co2)cc1 [mubritinib]
Procedure, shortened: as §1

Measured: log2 fold change

CGGBP1 (UniProt Q9UFW8)
inactive: [1] -0.068 | crizotinib -0.033 | [2] -0.05 | [3] -0.002 | duvelisib -0.036 | gandotinib 0.088 | tozasertib 0.056 | [4] -0.068 | doramapimod 0.018 | ispinesib -0.084 | bafetinib -0.027 | [5] 0.025 | nilotinib 0 | [6] 0.004 | dasatinib 0.004 | [7] -0.014 | [8] -0.024 | [9] -0.053 | tipifarnib 0.066 | mubritinib 0.058

CERS5 (UniProt Q8N5B7)
inactive: [1] -0.044 | crizotinib -0.038 | [2] 0.005 | [3] 0.028 | duvelisib 0.16 | gandotinib -0.148 | tozasertib 0.06 | [4] 0.042 | doramapimod -0.061 | ispinesib -0.114 | bafetinib -0.025 | [5] -0.032 | nilotinib -0.008 | [6] 0.026 | dasatinib -0.048 | [7] 0.078 | [8] 0.013 | [9] 0.059 | tipifarnib 0.009 | mubritinib 0.039

CHEK2 isoform 9 (UniProt O96017)
inactive: [1] -0.025 | crizotinib -0.015 | [2] 0.057 | [3] -0.06 | duvelisib 0.007 | gandotinib -0.065 | tozasertib -0.056 | [4] -0.026 | doramapimod -0.008 | ispinesib 0.002 | bafetinib -0.034 | [5] 0.079 | nilotinib -0.019 | [6] -0.175 | dasatinib -0.006 | [7] -0.059 | [8] 0.054 | [9] -0.083 | tipifarnib 0.065 | mubritinib 0.057

CHCHD6 (UniProt Q9BRQ6)
inactive: [1] -0.049 | crizotinib 0.042 | [2] -0.041 | [3] 0 | duvelisib 0.108 | gandotinib 0 | tozasertib -0.199 | [4] -0.005 | doramapimod 0.096 | ispinesib -0.01 | bafetinib -0.167 | [5] -0.042 | nilotinib -0.086 | [6] 0.026 | dasatinib 0.101 | [7] 0.003 | [8] 0.097 | [9] 0.083 | tipifarnib -0.057 | mubritinib 0.009

Quoted from the entries so far (two entries):
CERS5 (UniProt Q8N5B7)
inactive: [1] -0.044 | crizotinib -0.038 | [2] 0.005 | [3] 0.028 | duvelisib 0.16 | gandotinib -0.148 | tozasertib 0.06 | [4] 0.042 | doramapimod -0.061 | ispinesib -0.114 | bafetinib -0.025 | [5] -0.032 | nilotinib -0.008 | [6] 0.026 | dasatinib -0.048 | [7] 0.078 | [8] 0.013 | [9] 0.059 | tipifarnib 0.009 | mubritinib 0.039

CHEK2 isoform 9 (UniProt O96017)
inactive: [1] -0.025 | crizotinib -0.015 | [2] 0.057 | [3] -0.06 | duvelisib 0.007 | gandotinib -0.065 | tozasertib -0.056 | [4] -0.026 | doramapimod -0.008 | ispinesib 0.002 | bafetinib -0.034 | [5] 0.079 | nilotinib -0.019 | [6] -0.175 | dasatinib -0.006 | [7] -0.059 | [8] 0.054 | [9] -0.083 | tipifarnib 0.065 | mubritinib 0.057

Remaining list, next part

CDK7 (UniProt P50613)
inactive: [1] 0.034 | crizotinib 0.024 | [2] -0.058 | [3] 0.001 | duvelisib -0.01 | gandotinib 0.083 | tozasertib -0.009 | [4] -0.012 | doramapimod 0.001 | ispinesib 0.104 | bafetinib -0.061 | [5] -0.004 | nilotinib -0.01 | [6] 0.115 | dasatinib 0.052 | [7] -0.037 | [8] -0.024 | [9] 0.008 | tipifarnib 0.012 | mubritinib 0.029

CDV3 (UniProt Q9UKY7)
inactive: [1] -0.029 | crizotinib -0.007 | [2] 0.002 | [3] -0.062 | duvelisib 0.017 | gandotinib -0.088 | tozasertib -0.011 | [4] -0.051 | doramapimod 0.053 | ispinesib 0.028 | bafetinib 0.003 | [5] -0.044 | nilotinib 0.024 | [6] 0.01 | dasatinib 0.031 | [7] -0.008 | [8] 0.035 | [9] 0.029 | tipifarnib 0.044 | mubritinib 0.032

CFDP1 (UniProt Q9UEE9)
inactive: [1] 0.008 | crizotinib 0.037 | [2] 0.044 | [3] -0.026 | duvelisib 0.039 | gandotinib 0.04 | tozasertib -0.009 | [4] -0.06 | doramapimod -0.015 | ispinesib -0.063 | bafetinib -0.071 | [5] -0.042 | nilotinib -0.007 | [6] 0.009 | dasatinib 0.069 | [7] -0.008 | [8] 0.005 | [9] 0.014 | tipifarnib -0.046 | mubritinib 0.033

CHMP1A (UniProt Q9HD42)
inactive: [1] 0.01 | crizotinib -0.104 | [2] 0.01 | [3] -0.044 | duvelisib 0.013 | gandotinib 0.017 | tozasertib -0.023 | [4] 0.004 | doramapimod -0.023 | ispinesib -0.068 | bafetinib -0.123 | [5] 0.032 | nilotinib -0.011 | [6] -0.03 | dasatinib -0.026 | [7] 0.011 | [8] 0.013 | [9] 0.034 | tipifarnib 0.047 | mubritinib 0.006

CHMP1B (UniProt Q7LBR1)
inactive: [1] 0.011 | crizotinib -0.083 | [2] -0.022 | [3] 0.007 | duvelisib 0.038 | gandotinib -0.051 | tozasertib -0.023 | [4] -0.005 | doramapimod 0.013 | ispinesib -0.111 | bafetinib -0.07 | [5] 0.008 | nilotinib -0.155 | [6] 0.122 | dasatinib -0.017 | [7] -0.13 | [8] 0.027 | [9] -0.004 | tipifarnib -0.016 | mubritinib 0.035

CHD6 (UniProt Q8TD26)
inactive: [1] -0.24 | crizotinib 0.16 | [2] 0.014 | [3] -0.233 | duvelisib -0.528 | gandotinib 0 | tozasertib 0.016 | [4] -0.034 | doramapimod -0.136 | ispinesib 0.001 | bafetinib -0.038 | [5] -0.33 | nilotinib 0.168 | [6] 0.053 | dasatinib 0.057 | [7] 0.335 | [8] 0.218 | [9] 0.049 | tipifarnib 0.054 | mubritinib -0.396

CHID1 (UniProt Q9BWS9)
inactive: [1] -0.02 | crizotinib 0.023 | [2] -0.116 | [3] 0.103 | duvelisib -0.04 | gandotinib 0.051 | tozasertib 0.015 | [4] 0.032 | doramapimod 0.073 | ispinesib 0.04 | bafetinib 0.037 | [5] 0.013 | nilotinib -0.006 | [6] 0.036 | dasatinib 0.006 | [7] -0.085 | [8] -0.104 | [9] -0.031 | tipifarnib 0.025 | mubritinib -0.115

CHMP4A isoform 2 (UniProt Q9BY43)
inactive: [1] -0.031 | crizotinib -0.031 | [2] 0.018 | [3] 0.038 | duvelisib 0.017 | gandotinib 0.012 | tozasertib -0.098 | [4] -0.025 | doramapimod 0.02 | ispinesib -0.025 | bafetinib -0.023 | [5] -0.062 | nilotinib 0.01 | [6] 0.021 | dasatinib 0.033 | [7] -0.008 | [8] -0.005 | [9] -0.03 | tipifarnib 0.033 | mubritinib 0.06

CEP44 (UniProt Q9C0F1)
inactive: [1] -0.087 | crizotinib -0.205 | [2] 0.207 | [3] 0.245 | duvelisib -0.08 | gandotinib -0.044 | tozasertib 0.027 | [4] -0.039 | doramapimod 0.042 | ispinesib -0.103 | bafetinib -0.209 | [5] -0.08 | nilotinib -0.043 | [6] -0.129 | dasatinib 0.046 | [7] 0.151 | [8] 0.111 | [9] -0.046 | tipifarnib -0.042 | mubritinib -0.158

CHMP2B (UniProt Q9UQN3)
inactive: [1] -0.01 | crizotinib -0.096 | [2] 0 | [3] -0.03 | duvelisib 0.012 | gandotinib 0.019 | tozasertib -0.01 | [4] -0.015 | doramapimod -0.015 | ispinesib -0.058 | bafetinib -0.111 | [5] 0.005 | nilotinib 0.033 | [6] -0.002 | dasatinib 0.014 | [7] -0.043 | [8] 0.006 | [9] 0.044 | tipifarnib -0.005 | mubritinib 0.047

CFH (UniProt P08603)
inactive: [1] -0.043 | crizotinib 0.012 | [2] -0.066 | [3] 0.009 | duvelisib 0.039 | gandotinib 0.067 | tozasertib -0.015 | [4] -0.032 | doramapimod 0.1 | ispinesib 0.107 | bafetinib 0.06 | [5] 0.03 | nilotinib 0.011 | [6] 0.161 | dasatinib 0.003 | [7] 0.065 | [8] -0.038 | [9] -0.091 | tipifarnib 0.102 | mubritinib 0.185

CHML (UniProt P26374)
inactive: [1] 0.043 | crizotinib 0.063 | [2] 0.058 | [3] -0.073 | duvelisib 0.062 | gandotinib -0.057 | tozasertib -0.016 | [4] -0.003 | doramapimod -0.046 | ispinesib 0.142 | bafetinib -0.006 | [5] 0.013 | nilotinib -0.02 | [6] -0.013 | dasatinib -0.009 | [7] -0.004 | [8] 0.029 | [9] -0.007 | tipifarnib -0.078 | mubritinib 0.054
